Assay results from patent publication US8084016B2, “Measurement of biosynthesis and breakdown rates of biological molecules that are inaccessible or not easily accessible to direct sampling, non-invasively, by label incorporation into metabolic derivatives and catabolitic products” (The Regents of the University of California, priority 2002, dated 2011).

Tested on: muscle myosin
Assay: Incorporation of ^2H from ^2H2O into urinary 3-methyl-histidine (muscle myosin biosynthesis)
Format: in vivo
Settings: human subjects, intake of ^2H2O for 4-8 weeks
Source text: An individual undergoing a physical training program or medical therapeutic regimen intended to increase muscle mass by increasing muscle myosin biosynthesis (e.g., an athlete; an elderly person receiving physical therapy after a stroke; a patient with cachexia related to cancer or AIDS who is receiving nutritional or anabolic agent therapy) is given a labeled precursor that is incorporated into the body's proteins during biosynthesis. […] […] […] Total urinary amino acids are isolated with an SPE column. The amino acids are derivatized for gas chromatographic/mass spectrometric analysis. […] The derivatized amino acids are injected into a gas chromatograph/mass spectrometer (e.g., HP 5973 instrument), using, e.g., a DB-225 column. The mass spectrum of the 3-methyl histidine peak is collected while monitoring mass isotopomers at m/z 267 and 268 (parent and M+1 ions, respectively). Relative abundances of the above mass isotopomers are quantified in samples and compared to unlabeled standards ([…] 267+268]=0.1200 in samples and 0.0960 in standards). The proportion of labeled:unlabeled molecules present in the sample is calculated for 3-methylhistidine using MIDA.

Q: `Cn1cncc1C[C@H](N)C(=O)O` [3-methyl-histidine] was tested. Which “A1^∞: calculated maximal EM1 of 3-methyl histidine at measured ^2H2O” value did it give?
A: The value was 3.3.

Q: What about the “EM1: excess M + 1 mass isotopomer in t-butyl dimethyl silyl derivative of 3-methyl histidine” value (urinary) of the same compound?
A: The value was 2.6.

No dose or concentration is given here for some results.
